No constants are given. Whether binding was seen depends on the method and setting.
Experiments:
[1] = target: human SHOC1^570-1111 (human) (UniProt Q5VXU9); experiment: SEC; Superdex 200 gel filtration, calibrated with molecular weight markers; buffer Tris-HCl 7.4, NaCl 250 mM, glycerol 10%; both purified
[2] = target: human SHOC1^570-1111 (human) (UniProt Q5VXU9); experiment: cross-linking; 8 μM SHOC1 incubated with suberic acid bis(N-hydroxysuccinimide ester) (DSS) for 10 min at room temperature; 4-12% gradient SDS-PAGE, Coomassie stain; both purified

The chains behind the UniProt entries cited, without tags or fusion partners. Residues count along the entry.
UniProt Q5VXU9, residues 570-1111: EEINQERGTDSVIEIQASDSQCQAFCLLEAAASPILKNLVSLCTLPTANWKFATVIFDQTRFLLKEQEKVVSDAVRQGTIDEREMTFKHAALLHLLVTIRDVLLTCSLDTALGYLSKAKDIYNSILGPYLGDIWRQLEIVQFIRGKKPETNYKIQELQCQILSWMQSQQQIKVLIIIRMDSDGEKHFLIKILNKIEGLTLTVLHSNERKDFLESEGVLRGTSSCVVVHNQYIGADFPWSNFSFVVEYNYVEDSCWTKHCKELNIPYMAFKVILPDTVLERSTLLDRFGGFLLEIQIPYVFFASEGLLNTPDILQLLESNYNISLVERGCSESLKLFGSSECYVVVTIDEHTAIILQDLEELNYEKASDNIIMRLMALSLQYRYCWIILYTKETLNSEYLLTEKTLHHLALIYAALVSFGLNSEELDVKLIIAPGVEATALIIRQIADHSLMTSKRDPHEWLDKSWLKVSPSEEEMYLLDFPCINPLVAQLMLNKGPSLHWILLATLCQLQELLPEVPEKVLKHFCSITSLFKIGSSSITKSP

binding [1]: no binding
binding [2]: no binding (tested: 8 μM)
Substance: human SHOC1^570-1111 (from UniProt Q5VXU9 570-1111) (domain or fragment)
